Library compounds against nucleic acid targets

Data from the ROBIN nucleic acid binder screens, doi:10.1002/anie.202211358.

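Each compound is printed as two spots on a slide made to bind it covalently, so it has no test concentration; the read-out is fluorescence of the bound, labelled oligonucleotide. For the PreQ1, TPP and SAM-II riboswitches the laboratory earlier reported (doi:10.1038/s41467-019-09493-3) 1 µM RNA, 2 h, and a rule that included a mean Z-score above 3 (spot signal-to-noise against the whole library), a score well above that on a control array, and duplicate spots agreeing (coefficient of variation under 100). The data file gives only the calls; its cut-offs may differ, and compounds hitting several targets are kept. These are primary screening calls, not affinities; a compound without a hit may have attached poorly or may still bind in solution.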
A compound is marked Y if it was called a hit and N if it was screened but was not.
This is an unselected part of the compounds tested.
A dash means that no call is listed here.

Targets (5′ to 3′):
TPP: TPP riboswitch RNA three-way junction, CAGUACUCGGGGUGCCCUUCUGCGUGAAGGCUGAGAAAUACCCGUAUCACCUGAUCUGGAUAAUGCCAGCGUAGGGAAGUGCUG. About 24,000 compounds screened, about 160 hits.
PreQ1: PreQ1 riboswitch RNA pseudoknot, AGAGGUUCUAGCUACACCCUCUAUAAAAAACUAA. From B. subtilis. About 24,000 compounds screened, about 170 hits.
SAM-II: SAM-II riboswitch RNA pseudoknot, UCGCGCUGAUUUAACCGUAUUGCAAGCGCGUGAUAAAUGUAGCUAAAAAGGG. About 21,000 compounds screened, about 200 hits.

structure,TPP,PreQ1,SAM-II
COC[C@H](NC(=O)c1cnc(C)s1)C(=O)N[C@@H](COC)C(=O)N[C@@H](Cc1ccccc1)C(=O)[C@@]1(C)CO1,N,N,N
CCOC(=O)C1CCN(C(=O)c2cnc(Nc3ccccc3OC)c3ccccc23)CC1,N,N,N
C[C@@]1(O)CCN(C(=O)CCc2ccc(-c3ccccc3)cc2)C[C@@H]1O,N,N,N
CN(C)c1ccc(CNc2ccc(Br)cn2)cc1,N,N,N
Cc1ccc2c(c1)c(-c1ccccc1)c(-c1ccccc1)n2CC(O)Cn1cnc(-c2ccccc2)c1-c1ccccc1 (stereo not drawn),N,N,N
COc1ccc(S(=O)(=O)NCCO)cc1C(=O)O,N,N,N
CSc1ccccc1C(=O)NCc1cc2n(n1)CCCNC2,N,N,N
C=CCNc1oc(-c2ccc(F)cc2)nc1S(=O)(=O)c1ccccc1,N,N,-
OC1(CNCCC2=CSC3=NCCCN23)CNCCOC1 (stereo not drawn),N,N,N
c1cncc(NCCNc2nccc(C3CCCC3)n2)c1,N,N,N
CCN(CCn1cccn1)C(=O)c1cnc2c(c1)nc(N)n2CC,N,N,N
Cc1nc(NCCc2c(C)[nH]c3ccccc23)c2c3c(sc2n1)CCC3,N,N,N
CCOc1ccc(Cc2nnc(N)s2)cc1OCC,N,N,N
CN(Cc1cc2n(n1)CCNC2)Cc1n[nH]c2c1CCCCC2,N,N,N
CCOc1ccc(NC2CC(=O)N(c3ccccc3C)C2=O)cc1 (stereo not drawn),N,N,N
Cc1ncsc1CCN(C)Cc1ccc(CO)o1,N,N,N
O=C(CNCCc1nc2c(s1)CCC2)NC1CCCCCCC1,N,N,N
COc1ccc(CNC2=NS(=O)(=O)C(c3cccc(Cl)c3)=C2C)cc1OC,N,N,-
COc1ccc(-c2cc(NCCO)nc(N)n2)cc1Cl,N,N,N
O=C(NCCO)C1=Cc2ccccc2OC=C1,N,N,-
FC(F)(F)c1cccc(OCC2CNC(=S)O2)c1 (stereo not drawn),N,N,N
CNC(=O)[C@@H]1C[C@@H](N)CN1C(=O)CCn1nnc(-c2ccccc2)n1,N,N,N
CC1(C)CC(=O)C2=C(C1)OC(N)=C(C#N)C2c1ccc(Cl)cc1 (stereo not drawn),N,N,N
N#CC1=C(N)Oc2c(c(=O)sc3ccccc23)C1c1ccc(F)cc1 (stereo not drawn),N,N,N
O=C(NCCc1cccs1)N1CCC2(CC1)[C@H](O)C[C@@H]2O,N,N,N
Fc1ccc(-c2csc(Nc3cccnc3)n2)cc1,N,N,N
CN1CCC(N(Cc2ccncc2)C(=O)C2CNCCO2)CC1 (stereo not drawn),N,N,N
CN(C)CCNc1cnn(-c2ccccc2)c(=O)c1Cl,N,N,N
O=C(NCc1ccccn1)c1nn(-c2ccccc2Cl)nc1CO,N,N,-
Cc1cn2c3ccccc3nc2n1CCCO,N,N,N
CCOC(=O)c1c(Nc2ccc(Cl)cc2)cc(C)nc1C,N,N,N
CCCCc1nc(CN2Cc3ccccc3C(O)C2)c(Cl)[nH]1 (stereo not drawn),N,N,N
CNCc1cc(Cl)c(OCC(N)=O)c(OC)c1,N,N,N
COC(=O)CNC(c1ccccc1)c1cc(Br)ccc1NC(=O)CNC(=O)c1ccccc1 (stereo not drawn),N,N,N
O=C(NCCc1c[nH]c2ccccc12)c1nn(-c2ccc(Cl)cc2)nc1CO,N,N,-
Cc1cc(C)nc(CCNC2CCN(c3ncccn3)CC2)n1,N,N,N
COC(=O)Cc1[nH]c(=S)[nH]c1C(=O)OC,N,N,N
CCNc1nc(C)cc(N2CCN(S(=O)(=O)c3ccc(C)cc3)CC2)n1,N,N,-
OC1(CN2CCN(Cc3ccccc3F)CC2)CCNC1 (stereo not drawn),N,N,N
O=c1c2ccccc2nc(C=Cc2ccccc2)n1CCCO,N,N,N
Cc1ccccc1-c1cn[nH]c1C1CCNCC1,N,N,N
CNc1nc(Nc2ccc(C(=O)N3CCOCC3)cc2OC)ncc1Cl,N,N,N
COc1cccc(CNCc2cccnc2)c1OCc1ccccc1,N,N,N
N#Cc1c(-c2ccoc2)cc(-c2cn(CC(=O)O)c3ccccc23)nc1N,N,N,N
NCc1cc(NC(=O)c2ccccn2)cc(C(=O)N2CC[C@H]3CNC[C@H]32)c1,N,N,N
Cc1ccccc1N1C(N)=C(C#N)C(c2ccc3c(c2)OCO3)C2=C1CCCC2=O (stereo not drawn),N,N,N
COC(=O)c1cccc(Nc2c(-c3ccc(F)cc3)nc3cnccn23)c1,N,N,-
CC(=O)OC1CCC2(C)C(=CCC3C2CCC2(C)C3CC3OC4(CCC(C)CN4)C(C)C32)C1 (stereo not drawn),N,N,N